Measurements reported in the supplement of paper PMC10849652.
The other results are listed elsewhere or left out.

Sequences of proteins named here, by UniProt entry; tags and fusion partners are left off. A change or cut given only in a name is not applied to a line headed by its entry.
UniProt Q13442: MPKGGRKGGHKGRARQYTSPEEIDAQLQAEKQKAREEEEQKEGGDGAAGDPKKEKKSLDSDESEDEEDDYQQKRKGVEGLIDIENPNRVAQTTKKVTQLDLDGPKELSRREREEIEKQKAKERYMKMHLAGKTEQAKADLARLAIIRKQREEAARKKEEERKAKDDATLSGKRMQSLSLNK
UniProt P11177, whole entry, looked up: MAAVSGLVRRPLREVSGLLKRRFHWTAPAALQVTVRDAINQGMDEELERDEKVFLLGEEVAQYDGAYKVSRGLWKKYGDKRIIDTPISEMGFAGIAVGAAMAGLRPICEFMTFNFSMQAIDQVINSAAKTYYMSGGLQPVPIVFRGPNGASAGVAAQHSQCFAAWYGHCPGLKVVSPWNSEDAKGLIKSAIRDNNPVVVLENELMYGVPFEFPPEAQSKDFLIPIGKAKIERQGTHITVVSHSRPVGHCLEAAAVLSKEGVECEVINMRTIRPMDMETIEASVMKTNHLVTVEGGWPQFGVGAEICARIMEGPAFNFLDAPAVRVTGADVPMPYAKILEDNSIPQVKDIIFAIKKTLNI
UniProt P22234: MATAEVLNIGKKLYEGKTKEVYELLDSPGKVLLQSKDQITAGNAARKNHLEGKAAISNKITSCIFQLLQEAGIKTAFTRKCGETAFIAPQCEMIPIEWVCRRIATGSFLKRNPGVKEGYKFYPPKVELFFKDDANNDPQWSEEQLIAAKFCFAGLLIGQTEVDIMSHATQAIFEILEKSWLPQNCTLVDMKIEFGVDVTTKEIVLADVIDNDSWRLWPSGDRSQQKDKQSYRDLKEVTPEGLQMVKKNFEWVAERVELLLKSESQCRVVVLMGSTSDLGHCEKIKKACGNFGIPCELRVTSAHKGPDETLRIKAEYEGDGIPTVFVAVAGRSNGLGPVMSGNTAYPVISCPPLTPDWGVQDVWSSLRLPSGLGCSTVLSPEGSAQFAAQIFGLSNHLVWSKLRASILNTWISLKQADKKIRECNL
UniProt Q99447: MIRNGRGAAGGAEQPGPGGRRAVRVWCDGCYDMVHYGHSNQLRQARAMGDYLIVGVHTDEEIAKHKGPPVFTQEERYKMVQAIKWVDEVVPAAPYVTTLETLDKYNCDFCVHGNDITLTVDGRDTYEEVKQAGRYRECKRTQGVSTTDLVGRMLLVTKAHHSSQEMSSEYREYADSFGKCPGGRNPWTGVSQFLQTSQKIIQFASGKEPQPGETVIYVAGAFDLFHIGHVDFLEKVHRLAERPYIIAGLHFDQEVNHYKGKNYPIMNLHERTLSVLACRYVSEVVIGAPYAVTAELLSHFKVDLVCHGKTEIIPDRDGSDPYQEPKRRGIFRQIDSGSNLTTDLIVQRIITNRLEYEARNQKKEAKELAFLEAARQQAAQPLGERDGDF
UniProt O75459: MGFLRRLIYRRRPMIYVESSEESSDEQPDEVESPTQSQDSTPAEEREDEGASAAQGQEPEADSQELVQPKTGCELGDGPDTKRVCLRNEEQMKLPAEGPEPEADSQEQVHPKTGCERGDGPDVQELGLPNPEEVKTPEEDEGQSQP
UniProt Q9NP74: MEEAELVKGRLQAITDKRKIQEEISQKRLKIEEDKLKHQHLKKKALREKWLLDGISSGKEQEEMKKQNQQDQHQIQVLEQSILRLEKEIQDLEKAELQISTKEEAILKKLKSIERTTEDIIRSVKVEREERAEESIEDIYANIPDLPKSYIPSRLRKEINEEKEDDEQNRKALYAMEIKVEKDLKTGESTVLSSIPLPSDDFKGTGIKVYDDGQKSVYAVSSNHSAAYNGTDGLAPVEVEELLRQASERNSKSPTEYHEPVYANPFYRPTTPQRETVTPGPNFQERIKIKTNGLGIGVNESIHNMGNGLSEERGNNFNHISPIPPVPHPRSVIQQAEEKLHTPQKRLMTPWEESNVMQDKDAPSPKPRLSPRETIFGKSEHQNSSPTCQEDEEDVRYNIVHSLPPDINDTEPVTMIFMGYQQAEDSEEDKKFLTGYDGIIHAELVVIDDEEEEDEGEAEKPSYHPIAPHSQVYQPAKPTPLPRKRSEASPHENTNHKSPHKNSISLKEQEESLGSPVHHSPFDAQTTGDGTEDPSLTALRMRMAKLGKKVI
UniProt Q14554: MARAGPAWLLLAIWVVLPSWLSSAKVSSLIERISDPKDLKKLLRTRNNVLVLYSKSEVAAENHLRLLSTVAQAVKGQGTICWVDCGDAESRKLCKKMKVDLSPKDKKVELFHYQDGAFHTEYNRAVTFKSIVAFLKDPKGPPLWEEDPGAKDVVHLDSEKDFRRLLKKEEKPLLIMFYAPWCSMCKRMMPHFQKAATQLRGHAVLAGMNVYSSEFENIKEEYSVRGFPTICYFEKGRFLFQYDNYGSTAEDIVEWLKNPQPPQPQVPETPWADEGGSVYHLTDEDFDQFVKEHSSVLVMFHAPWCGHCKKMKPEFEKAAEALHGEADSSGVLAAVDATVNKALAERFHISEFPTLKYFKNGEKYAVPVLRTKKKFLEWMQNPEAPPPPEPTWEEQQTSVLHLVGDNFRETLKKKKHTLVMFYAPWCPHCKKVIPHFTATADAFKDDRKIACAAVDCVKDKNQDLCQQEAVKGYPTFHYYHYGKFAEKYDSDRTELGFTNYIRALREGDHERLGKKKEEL
UniProt Q8NCN5: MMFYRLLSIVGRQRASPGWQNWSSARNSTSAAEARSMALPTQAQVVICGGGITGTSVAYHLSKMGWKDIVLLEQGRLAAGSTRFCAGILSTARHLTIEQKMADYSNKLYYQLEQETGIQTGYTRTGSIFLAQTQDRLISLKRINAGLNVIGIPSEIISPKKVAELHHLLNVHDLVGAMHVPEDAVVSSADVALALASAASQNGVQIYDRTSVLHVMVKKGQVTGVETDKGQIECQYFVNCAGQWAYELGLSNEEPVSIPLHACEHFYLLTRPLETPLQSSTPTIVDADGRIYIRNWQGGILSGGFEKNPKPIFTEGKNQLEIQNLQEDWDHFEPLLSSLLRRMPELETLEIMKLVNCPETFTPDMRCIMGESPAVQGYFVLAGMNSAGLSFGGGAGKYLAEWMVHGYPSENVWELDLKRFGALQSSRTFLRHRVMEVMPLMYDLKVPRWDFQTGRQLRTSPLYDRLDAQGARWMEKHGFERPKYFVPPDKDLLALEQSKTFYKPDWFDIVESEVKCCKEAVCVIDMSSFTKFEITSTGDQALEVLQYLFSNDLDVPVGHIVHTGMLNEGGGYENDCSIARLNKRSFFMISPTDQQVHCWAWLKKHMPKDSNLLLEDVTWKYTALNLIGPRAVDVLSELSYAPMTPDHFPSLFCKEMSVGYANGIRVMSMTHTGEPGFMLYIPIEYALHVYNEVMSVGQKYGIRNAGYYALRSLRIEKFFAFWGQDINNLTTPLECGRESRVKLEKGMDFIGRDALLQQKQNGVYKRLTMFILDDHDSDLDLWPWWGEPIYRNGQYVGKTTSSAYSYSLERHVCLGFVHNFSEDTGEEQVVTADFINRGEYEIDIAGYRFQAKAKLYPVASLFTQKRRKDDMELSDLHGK
UniProt O00330, whole entry, looked up: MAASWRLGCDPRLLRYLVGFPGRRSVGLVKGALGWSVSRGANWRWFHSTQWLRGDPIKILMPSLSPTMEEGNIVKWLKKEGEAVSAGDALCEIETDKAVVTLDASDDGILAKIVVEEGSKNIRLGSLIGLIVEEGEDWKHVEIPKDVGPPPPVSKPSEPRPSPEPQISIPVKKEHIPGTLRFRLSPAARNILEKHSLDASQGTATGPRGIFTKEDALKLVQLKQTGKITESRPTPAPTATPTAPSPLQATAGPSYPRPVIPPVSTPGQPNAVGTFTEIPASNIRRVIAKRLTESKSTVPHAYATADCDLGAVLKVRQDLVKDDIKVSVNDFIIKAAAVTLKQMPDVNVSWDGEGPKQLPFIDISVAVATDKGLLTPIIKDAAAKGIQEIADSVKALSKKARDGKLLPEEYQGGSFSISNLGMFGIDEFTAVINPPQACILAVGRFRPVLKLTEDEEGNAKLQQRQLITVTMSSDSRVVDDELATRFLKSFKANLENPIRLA
UniProt Q9HBH1: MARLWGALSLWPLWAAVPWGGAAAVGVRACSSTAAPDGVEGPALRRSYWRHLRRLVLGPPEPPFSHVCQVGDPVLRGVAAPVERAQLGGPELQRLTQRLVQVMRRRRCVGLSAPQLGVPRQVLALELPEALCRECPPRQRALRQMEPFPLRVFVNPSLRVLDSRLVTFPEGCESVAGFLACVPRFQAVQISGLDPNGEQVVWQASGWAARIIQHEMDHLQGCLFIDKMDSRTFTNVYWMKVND
UniProt P50479: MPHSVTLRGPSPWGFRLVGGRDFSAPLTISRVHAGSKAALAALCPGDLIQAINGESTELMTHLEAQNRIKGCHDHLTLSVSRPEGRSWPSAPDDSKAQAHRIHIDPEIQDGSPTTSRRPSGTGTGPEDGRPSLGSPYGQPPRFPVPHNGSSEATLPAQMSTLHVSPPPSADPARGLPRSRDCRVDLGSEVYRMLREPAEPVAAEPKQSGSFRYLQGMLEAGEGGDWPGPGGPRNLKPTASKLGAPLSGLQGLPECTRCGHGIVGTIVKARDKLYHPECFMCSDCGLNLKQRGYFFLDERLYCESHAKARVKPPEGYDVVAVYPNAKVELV
UniProt P51003: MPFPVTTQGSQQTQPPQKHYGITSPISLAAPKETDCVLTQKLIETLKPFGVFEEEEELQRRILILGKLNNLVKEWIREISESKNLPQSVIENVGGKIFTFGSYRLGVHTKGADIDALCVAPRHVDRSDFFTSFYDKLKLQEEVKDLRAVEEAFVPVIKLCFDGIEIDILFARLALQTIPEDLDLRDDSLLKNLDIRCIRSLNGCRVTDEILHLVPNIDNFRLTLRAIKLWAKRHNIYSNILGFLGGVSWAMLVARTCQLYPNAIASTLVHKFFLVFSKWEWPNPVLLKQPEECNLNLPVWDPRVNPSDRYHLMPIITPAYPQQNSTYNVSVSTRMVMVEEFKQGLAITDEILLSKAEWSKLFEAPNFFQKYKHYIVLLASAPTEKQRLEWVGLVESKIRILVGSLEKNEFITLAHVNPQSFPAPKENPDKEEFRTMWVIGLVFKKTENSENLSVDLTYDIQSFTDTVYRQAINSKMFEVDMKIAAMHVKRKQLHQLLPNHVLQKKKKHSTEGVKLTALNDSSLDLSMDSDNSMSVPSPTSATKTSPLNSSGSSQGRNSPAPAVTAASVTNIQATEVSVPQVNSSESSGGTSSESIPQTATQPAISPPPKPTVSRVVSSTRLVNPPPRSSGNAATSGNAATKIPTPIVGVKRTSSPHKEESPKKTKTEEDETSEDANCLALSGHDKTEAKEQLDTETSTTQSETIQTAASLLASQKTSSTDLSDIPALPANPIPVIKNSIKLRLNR
UniProt Q9BTK6, whole entry, looked up: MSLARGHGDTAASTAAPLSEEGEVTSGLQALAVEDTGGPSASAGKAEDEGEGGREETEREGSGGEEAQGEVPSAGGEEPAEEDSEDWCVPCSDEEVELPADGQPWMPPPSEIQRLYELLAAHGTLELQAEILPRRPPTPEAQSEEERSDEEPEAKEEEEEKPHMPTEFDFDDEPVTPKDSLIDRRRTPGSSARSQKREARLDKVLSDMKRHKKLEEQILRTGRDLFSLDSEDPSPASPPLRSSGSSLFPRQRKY
UniProt Q9H0N5: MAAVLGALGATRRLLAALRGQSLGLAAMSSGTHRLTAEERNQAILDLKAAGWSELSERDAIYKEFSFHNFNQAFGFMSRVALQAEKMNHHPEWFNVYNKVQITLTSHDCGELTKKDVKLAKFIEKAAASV
UniProt P43034: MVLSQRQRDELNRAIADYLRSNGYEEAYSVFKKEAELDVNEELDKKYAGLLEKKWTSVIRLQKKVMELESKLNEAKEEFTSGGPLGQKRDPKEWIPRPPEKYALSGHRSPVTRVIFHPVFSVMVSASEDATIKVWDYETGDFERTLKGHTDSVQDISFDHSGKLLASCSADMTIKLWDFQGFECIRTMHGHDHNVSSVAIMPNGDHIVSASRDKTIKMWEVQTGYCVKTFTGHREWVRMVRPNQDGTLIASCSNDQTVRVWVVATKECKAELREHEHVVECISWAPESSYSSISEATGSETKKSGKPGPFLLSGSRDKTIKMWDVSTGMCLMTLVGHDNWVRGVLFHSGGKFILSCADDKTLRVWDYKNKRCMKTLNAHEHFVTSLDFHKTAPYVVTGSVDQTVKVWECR

What was measured:
Test in all cases: log2 fold change, soluble protein after heating vs DMSO (PISA); higher = thermal stabilisation; K562 cells, 10 uM, 30 min; active = over 0.2 and 3.5 SD of the protein, either way, in both replicates (recomputed)
[1] = compound: COC1=CC=C(C=C1)CN2C=CC3=C2C=C(C=C3)C(=O)NO
In short: (§1)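 K562 cells at 2×10^6 cells/mL were exposed to 10 μM compound for 30 min, then aliquots were heated for 3 min across 48°C-58°C, pooled, and extracted in PBS containing 0.5% NP-40 at 4°C. The supernatant after 21,000xg for 90 min was taken as soluble protein and measured by TMTpro 16plex LC-MS/MS with channel sums equalised. Thermal stability is reported relative to control samples, with values from duplicates. Fold changes are given on a log2 scale.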

filanesib = compound: CON(C)C(=O)N1N=C(c2cc(F)ccc2F)S[C@@]1(CCCN)c1ccccc1 [filanesib]
In short: as §1

zotarolimus = compound: CO[C@H]1C[C@@H]2CC[C@@H](C)[C@@](O)(O2)C(=O)C(=O)N2CCCC[C@H]2C(=O)O[C@H]([C@H](C)C[C@@H]2CC[C@H](n3cnnn3)[C@H](OC)C2)CC(=O)[C@H](C)/C=C(\C)[C@@H](O)[C@@H](OC)C(=O)[C@H](C)C[C@H](C)/C=C/C=C/C=C/1C [zotarolimus]
In short: as §1

idasanutlin = compound: COc1cc(C(=O)O)ccc1NC(=O)[C@@H]1N[C@@H](CC(C)(C)C)[C@](C#N)(c2ccc(Cl)cc2F)[C@H]1c1cccc(Cl)c1F [idasanutlin]
In short: as §1

alisertib = compound: COc1cc(Nc2ncc3c(n2)-c2ccc(Cl)cc2C(c2c(F)cccc2OC)=NC3)ccc1C(=O)O [alisertib]
In short: as §1

[2] = compound: COc1cc2nc(-c3cc(F)ccc3O)nc(N[C@@H]3CNC[C@H]3C(C)(C)O)c2cc1OC
In short: as §1

gefitinib = compound: COc1cc2ncnc(Nc3ccc(F)c(Cl)c3)c2cc1OCCCN1CCOCC1 [gefitinib]
In short: as §1

[3] = compound: COc1cccc2cc(-c3nc([C@H]4CC[C@H](C(=O)O)CC4)n4ncnc(N)c34)[nH]c12
In short: as §1

lapatinib = compound: CS(=O)(=O)CCNCc1ccc(-c2ccc3ncnc(Nc4ccc(OCc5cccc(F)c5)c(Cl)c4)c3c2)o1 [lapatinib]
In short: as §1

pictilisib = compound: CS(=O)(=O)N1CCN(Cc2cc3nc(-c4cccc5[nH]ncc45)nc(N4CCOCC4)c3s2)CC1 [pictilisib]
In short: as §1

[4] = compound: CS(=O)(=O)c1ccc(-c2cnc(N)c(C(=O)Nc3ccccc3)n2)cc1
In short: as §1

crizotinib = compound: C[C@@H](Oc1cc(-c2cnn(C3CCNCC3)c2)cnc1N)c1c(Cl)ccc(F)c1Cl [crizotinib]
In short: as §1

[5] = compound: C[C@@H]1COCCN1C2=NC(=NC(=C2)C3(CC3)S(=O)(=O)C)C4=C5C=CNC5=CC=C4
In short: as §1

[6] = compound: C[C@H](C1=CC=C(C=C1)C(=O)NC2=C3C=CNC3=NC=C2)N
In short: as §1

duvelisib = compound: C[C@H](Nc1ncnc2nc[nH]c12)c1cc2cccc(Cl)c2c(=O)n1-c1ccccc1 [duvelisib]
In short: as §1

gandotinib = compound: Cc1cc(Nc2cc(CN3CCOCC3)c3nc(C)c(Cc4ccc(Cl)cc4F)n3n2)n[nH]1 [gandotinib]
In short: as §1

tozasertib = compound: Cc1cc(Nc2cc(N3CCN(C)CC3)nc(Sc3ccc(NC(=O)C4CC4)cc3)n2)n[nH]1 [tozasertib]
In short: as §1

[7] = compound: Cc1cc(SCc2sc(-c3ccc(C(F)(F)F)cc3)nc2C)ccc1OCC(=O)O
In short: as §1

doramapimod = compound: Cc1ccc(-n2nc(C(C)(C)C)cc2NC(=O)Nc2ccc(OCCN3CCOCC3)c3ccccc23)cc1 [doramapimod]
In short: as §1

ispinesib = compound: Cc1ccc(C(=O)N(CCCN)[C@@H](c2nc3cc(Cl)ccc3c(=O)n2Cc2ccccc2)C(C)C)cc1 [ispinesib]
In short: as §1

Measured: log2 fold change

PDAP1 (UniProt Q13442)
inactive: [1] 0.018 | filanesib -0.045 | zotarolimus -0.025 | idasanutlin 0.01 | alisertib -0.078 | [2] 0.002 | gefitinib 0.005 | [3] 0.031 | lapatinib 0.017 | pictilisib 0 | [4] -0.072 | crizotinib -0.033 | [5] -0.059 | [6] 0.023 | duvelisib -0.003 | gandotinib 0.012 | tozasertib -0.061 | [7] -0.025 | doramapimod 0.063 | ispinesib 0.059

PDHB (UniProt P11177)
inactive: [1] -0.008 | filanesib 0.05 | zotarolimus 0.055 | idasanutlin 0.013 | alisertib -0.06 | [2] -0.134 | gefitinib -0.063 | [3] -0.177 | lapatinib 0.189 | pictilisib 0.005 | [4] 0.057 | crizotinib -0.047 | [5] -0.129 | [6] 0.143 | duvelisib -0.061 | gandotinib 0.024 | tozasertib 0.064 | [7] 0.194 | doramapimod 0.091 | ispinesib -0.174

PAICS (UniProt P22234)
inactive: [1] 0.001 | filanesib -0.018 | zotarolimus -0.037 | idasanutlin -0.012 | alisertib -0.047 | [2] 0.03 | gefitinib 0.002 | [3] 0.018 | lapatinib -0.057 | pictilisib 0.034 | [4] 0.019 | crizotinib 0.008 | [5] 0.027 | [6] -0.023 | duvelisib 0.016 | gandotinib 0.019 | tozasertib -0.046 | [7] -0.034 | doramapimod -0.017 | ispinesib 0.003

PCYT2 isoform 3 (UniProt Q99447)
inactive: [1] 0.018 | filanesib -0.094 | zotarolimus -0.008 | idasanutlin -0.026 | alisertib -0.05 | [2] 0.061 | gefitinib -0.013 | [3] 0.045 | lapatinib 0.024 | pictilisib -0.014 | [4] -0.009 | crizotinib 0.054 | [5] 0.037 | [6] -0.073 | duvelisib 0.024 | gandotinib -0.056 | tozasertib -0.059 | [7] 0.009 | doramapimod -0.026 | ispinesib 0.185

PAGE1 (UniProt O75459)
inactive: [1] 0.055 | filanesib 0.015 | zotarolimus -0.062 | idasanutlin 0.024 | alisertib -0.048 | [2] -0.034 | gefitinib -0.003 | [3] 0.023 | lapatinib -0.046 | pictilisib -0.02 | [4] 0.014 | crizotinib 0.01 | [5] -0.101 | [6] 0.031 | duvelisib -0.073 | gandotinib 0.089 | tozasertib -0.07 | [7] -0.089 | doramapimod 0 | ispinesib 0.174

PALMD (UniProt Q9NP74)
inactive: [1] -0.015 | filanesib 0.034 | zotarolimus -0.011 | idasanutlin 0.079 | alisertib 0.012 | [2] 0.043 | gefitinib -0.021 | [3] 0 | lapatinib 0.009 | pictilisib -0.009 | [4] -0.42 | crizotinib 0.007 | [5] -0.017 | [6] -0.051 | duvelisib 0.038 | gandotinib 0.009 | tozasertib -0.012 | [7] 0.002 | doramapimod -0.031 | ispinesib 0.033

PDIA5 (UniProt Q14554)
inactive: [1] 0.054 | filanesib 0.078 | zotarolimus 0.011 | idasanutlin 0.044 | alisertib -0.161 | [2] -0.01 | gefitinib -0.002 | [3] -0.076 | lapatinib 0.064 | pictilisib -0.007 | [4] 0.014 | crizotinib 0.114 | [5] -0.133 | [6] 0.093 | duvelisib -0.078 | gandotinib 0.103 | tozasertib 0.036 | [7] 0.049 | doramapimod 0.022 | ispinesib 0.023

PDPR (UniProt Q8NCN5)
inactive: [1] 0.028 | filanesib -0.023 | zotarolimus 0.044 | idasanutlin -0.029 | alisertib -0.041 | [2] -0.062 | gefitinib 0.034 | [3] 0.009 | lapatinib 0 | pictilisib 0.062 | [4] 0.061 | crizotinib 0.079 | [5] 0.026 | [6] -0.104 | duvelisib 0.027 | gandotinib 0.023 | tozasertib 0.024 | [7] -0.004 | doramapimod -0.013 | ispinesib 0.065

PCM1 isoform 5 (UniProt Q15154)
inactive: [1] 0.013 | filanesib 0.155 | zotarolimus 0.041 | idasanutlin 0.203 | alisertib -0.146 | [2] -0.011 | gefitinib -0.021 | [3] -0.02 | lapatinib 0.048 | pictilisib 0.001 | [4] 0.041 | crizotinib -0.041 | [5] -0.141 | [6] 0.246 | duvelisib -0.082 | gandotinib 0.08 | tozasertib 0.04 | [7] 0.063 | doramapimod 0.082 | ispinesib -0.081

PDHX (UniProt O00330)
inactive: [1] -0.109 | filanesib 0.162 | zotarolimus -0.001 | idasanutlin 0.125 | alisertib -0.08 | [2] -0.095 | gefitinib -0.096 | [3] -0.184 | lapatinib 0.235 | pictilisib -0.088 | [4] 0.032 | crizotinib 0.092 | [5] -0.132 | [6] 0.241 | duvelisib -0.155 | gandotinib 0.089 | tozasertib 0.122 | [7] 0.085 | doramapimod 0.163 | ispinesib -0.148

Quoted at random: 2 records from the list
PCYT2 isoform 3 (UniProt Q99447)
inactive: [1] 0.018 | filanesib -0.094 | zotarolimus -0.008 | idasanutlin -0.026 | alisertib -0.05 | [2] 0.061 | gefitinib -0.013 | [3] 0.045 | lapatinib 0.024 | pictilisib -0.014 | [4] -0.009 | crizotinib 0.054 | [5] 0.037 | [6] -0.073 | duvelisib 0.024 | gandotinib -0.056 | tozasertib -0.059 | [7] 0.009 | doramapimod -0.026 | ispinesib 0.185

PALMD (UniProt Q9NP74)
inactive: [1] -0.015 | filanesib 0.034 | zotarolimus -0.011 | idasanutlin 0.079 | alisertib 0.012 | [2] 0.043 | gefitinib -0.021 | [3] 0 | lapatinib 0.009 | pictilisib -0.009 | [4] -0.42 | crizotinib 0.007 | [5] -0.017 | [6] -0.051 | duvelisib 0.038 | gandotinib 0.009 | tozasertib -0.012 | [7] 0.002 | doramapimod -0.031 | ispinesib 0.033

The list goes on:

PDF (UniProt Q9HBH1)
inactive: [1] 0.181 | filanesib -0.014 | zotarolimus -0.074 | idasanutlin -0.006 | alisertib -0.051 | [2] -0.105 | gefitinib 0.04 | [3] 0.034 | lapatinib 0.008 | pictilisib 0.018 | [4] 0.014 | crizotinib -0.033 | [5] -0.022 | [6] -0.026 | duvelisib 0.041 | gandotinib 0.033 | tozasertib 0.03 | [7] 0.001 | doramapimod -0.008 | ispinesib -0.147

PDLIM4 (UniProt P50479)
inactive: [1] -0.01 | filanesib 0.014 | zotarolimus -0.022 | idasanutlin -0.01 | alisertib -0.086 | [2] 0.038 | gefitinib -0.002 | [3] 0.01 | lapatinib 0.018 | pictilisib 0.007 | [4] -0.013 | crizotinib 0.026 | [5] 0.001 | [6] -0.022 | duvelisib 0.033 | gandotinib 0.007 | tozasertib 0.009 | [7] -0.083 | doramapimod -0.016 | ispinesib 0.068

PAPOLA (UniProt P51003)
inactive: [1] -0.032 | filanesib -0.063 | zotarolimus 0.02 | idasanutlin -0.078 | alisertib -0.044 | [2] -0.002 | gefitinib 0.003 | [3] 0.036 | lapatinib -0.021 | pictilisib 0.077 | [4] 0.006 | crizotinib -0.011 | [5] 0.077 | [6] -0.035 | duvelisib 0.025 | gandotinib -0.086 | tozasertib -0.02 | [7] 0.022 | doramapimod -0.002 | ispinesib 0.019

PAGR1 (UniProt Q9BTK6)
inactive: [1] 0.172 | filanesib -0.126 | zotarolimus -0.009 | idasanutlin -0.025 | alisertib -0.118 | [2] -0.029 | gefitinib 0.002 | [3] -0.064 | lapatinib 0.041 | pictilisib -0.124 | [4] -0.046 | crizotinib 0.001 | [5] -0.146 | [6] -0.058 | duvelisib -0.083 | gandotinib 0.097 | tozasertib 0.057 | [7] -0.045 | doramapimod 0.055 | ispinesib -0.134

PCBD2 (UniProt Q9H0N5)
inactive: [1] -0.002 | filanesib -0.033 | zotarolimus 0.001 | idasanutlin -0.01 | alisertib -0.02 | [2] -0.001 | gefitinib 0.006 | [3] 0.026 | lapatinib -0.04 | pictilisib 0.055 | [4] 0.019 | crizotinib 0.103 | [5] 0.025 | [6] -0.044 | duvelisib 0.095 | gandotinib 0.013 | tozasertib -0.007 | [7] -0.053 | doramapimod -0.027 | ispinesib 0.03

PAFAH1B1 (UniProt P43034)
inactive: [1] -0.11 | filanesib -0.013 | zotarolimus 0.015 | idasanutlin -0.009 | alisertib -0.014 | [2] 0.024 | gefitinib 0.008 | [3] 0.046 | lapatinib -0.015 | pictilisib 0.023 | [4] 0.025 | crizotinib 0.032 | [5] 0.026 | [6] -0.112 | duvelisib 0.03 | gandotinib -0.016 | tozasertib -0.025 | [7] -0.02 | doramapimod -0.04 | ispinesib 0.029
